# Assay results from the supplement of paper PMC6411743.
# Chains of the proteins cited; added tags and fusions are not shown. Lines headed by an entry give the natural chain unless they say otherwise; changes in a name come on top.
# UniProt P15814: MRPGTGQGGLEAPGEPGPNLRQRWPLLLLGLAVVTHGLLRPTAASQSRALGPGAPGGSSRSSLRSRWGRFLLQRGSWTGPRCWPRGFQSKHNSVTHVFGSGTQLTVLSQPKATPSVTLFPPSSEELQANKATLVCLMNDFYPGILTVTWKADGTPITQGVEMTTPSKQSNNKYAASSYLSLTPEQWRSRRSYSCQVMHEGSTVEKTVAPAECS
# UniProt P10412, whole entry: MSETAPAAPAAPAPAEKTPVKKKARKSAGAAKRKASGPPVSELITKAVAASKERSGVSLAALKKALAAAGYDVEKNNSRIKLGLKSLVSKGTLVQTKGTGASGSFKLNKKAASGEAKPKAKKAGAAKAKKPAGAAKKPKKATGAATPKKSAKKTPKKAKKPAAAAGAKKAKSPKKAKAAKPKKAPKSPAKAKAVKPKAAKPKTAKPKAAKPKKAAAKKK
# UniProt O95873: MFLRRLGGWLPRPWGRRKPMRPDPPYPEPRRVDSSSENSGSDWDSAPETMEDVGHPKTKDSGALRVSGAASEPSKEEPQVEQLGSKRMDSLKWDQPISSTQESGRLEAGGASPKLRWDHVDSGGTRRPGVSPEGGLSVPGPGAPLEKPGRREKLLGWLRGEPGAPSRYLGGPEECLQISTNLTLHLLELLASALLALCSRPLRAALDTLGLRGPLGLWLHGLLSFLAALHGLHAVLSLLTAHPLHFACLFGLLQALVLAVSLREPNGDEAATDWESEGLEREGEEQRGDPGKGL
# UniProt P04181: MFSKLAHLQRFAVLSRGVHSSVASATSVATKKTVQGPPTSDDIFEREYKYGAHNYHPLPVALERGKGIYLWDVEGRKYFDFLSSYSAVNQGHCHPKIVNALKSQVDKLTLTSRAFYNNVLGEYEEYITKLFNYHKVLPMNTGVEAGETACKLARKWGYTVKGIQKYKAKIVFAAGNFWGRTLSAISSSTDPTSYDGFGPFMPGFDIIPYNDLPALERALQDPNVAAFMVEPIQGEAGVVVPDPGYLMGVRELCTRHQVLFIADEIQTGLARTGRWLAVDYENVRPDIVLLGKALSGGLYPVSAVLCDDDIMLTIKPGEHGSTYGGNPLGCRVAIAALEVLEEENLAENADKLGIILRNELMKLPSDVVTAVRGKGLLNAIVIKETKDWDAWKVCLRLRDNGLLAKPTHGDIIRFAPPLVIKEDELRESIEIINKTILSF
# UniProt P14868: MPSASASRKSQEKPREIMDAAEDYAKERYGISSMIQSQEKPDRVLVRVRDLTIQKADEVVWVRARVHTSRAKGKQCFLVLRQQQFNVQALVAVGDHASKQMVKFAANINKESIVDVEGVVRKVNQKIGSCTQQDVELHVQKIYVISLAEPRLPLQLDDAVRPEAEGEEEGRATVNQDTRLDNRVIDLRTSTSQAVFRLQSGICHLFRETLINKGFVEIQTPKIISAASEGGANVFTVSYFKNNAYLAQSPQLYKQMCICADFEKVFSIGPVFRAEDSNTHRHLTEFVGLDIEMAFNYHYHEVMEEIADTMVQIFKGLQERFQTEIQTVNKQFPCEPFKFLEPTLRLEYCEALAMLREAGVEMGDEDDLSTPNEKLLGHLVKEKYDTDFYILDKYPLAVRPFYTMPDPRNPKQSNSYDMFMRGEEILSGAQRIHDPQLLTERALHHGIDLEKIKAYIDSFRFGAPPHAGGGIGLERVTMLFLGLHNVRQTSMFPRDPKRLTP
# UniProt P14621: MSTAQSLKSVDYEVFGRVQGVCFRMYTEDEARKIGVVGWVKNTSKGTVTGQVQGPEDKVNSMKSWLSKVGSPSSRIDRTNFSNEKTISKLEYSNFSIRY
# UniProt P02795: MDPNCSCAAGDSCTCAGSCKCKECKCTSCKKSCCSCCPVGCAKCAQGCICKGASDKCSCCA
# UniProt P08670, whole entry: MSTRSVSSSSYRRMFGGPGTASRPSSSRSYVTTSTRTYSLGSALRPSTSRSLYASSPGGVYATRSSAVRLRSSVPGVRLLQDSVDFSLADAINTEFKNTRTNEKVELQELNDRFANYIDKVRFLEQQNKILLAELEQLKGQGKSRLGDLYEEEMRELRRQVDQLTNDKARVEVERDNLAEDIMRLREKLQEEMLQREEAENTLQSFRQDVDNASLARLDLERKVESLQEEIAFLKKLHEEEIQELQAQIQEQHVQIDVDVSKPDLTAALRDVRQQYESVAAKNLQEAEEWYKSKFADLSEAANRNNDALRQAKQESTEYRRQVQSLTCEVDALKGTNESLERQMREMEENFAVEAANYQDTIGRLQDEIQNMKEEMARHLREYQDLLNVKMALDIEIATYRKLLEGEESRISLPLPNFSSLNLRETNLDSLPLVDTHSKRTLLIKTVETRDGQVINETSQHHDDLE
# UniProt O96005: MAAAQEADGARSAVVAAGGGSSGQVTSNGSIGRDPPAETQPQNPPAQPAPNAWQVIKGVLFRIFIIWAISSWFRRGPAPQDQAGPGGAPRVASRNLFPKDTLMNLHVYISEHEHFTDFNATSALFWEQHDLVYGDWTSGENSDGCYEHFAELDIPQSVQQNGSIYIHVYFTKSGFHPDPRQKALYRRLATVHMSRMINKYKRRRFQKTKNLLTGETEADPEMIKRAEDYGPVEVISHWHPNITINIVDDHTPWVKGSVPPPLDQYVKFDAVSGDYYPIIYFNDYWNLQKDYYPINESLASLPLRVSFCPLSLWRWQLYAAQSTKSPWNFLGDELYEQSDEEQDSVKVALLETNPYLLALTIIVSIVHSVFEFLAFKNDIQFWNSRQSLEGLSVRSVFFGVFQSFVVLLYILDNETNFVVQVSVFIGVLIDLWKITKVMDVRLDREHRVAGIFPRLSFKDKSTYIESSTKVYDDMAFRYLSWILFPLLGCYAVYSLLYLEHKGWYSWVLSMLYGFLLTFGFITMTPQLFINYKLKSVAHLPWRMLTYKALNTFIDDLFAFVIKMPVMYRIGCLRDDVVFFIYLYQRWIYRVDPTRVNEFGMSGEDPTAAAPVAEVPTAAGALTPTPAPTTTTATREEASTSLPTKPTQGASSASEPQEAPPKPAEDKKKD
# UniProt P10074: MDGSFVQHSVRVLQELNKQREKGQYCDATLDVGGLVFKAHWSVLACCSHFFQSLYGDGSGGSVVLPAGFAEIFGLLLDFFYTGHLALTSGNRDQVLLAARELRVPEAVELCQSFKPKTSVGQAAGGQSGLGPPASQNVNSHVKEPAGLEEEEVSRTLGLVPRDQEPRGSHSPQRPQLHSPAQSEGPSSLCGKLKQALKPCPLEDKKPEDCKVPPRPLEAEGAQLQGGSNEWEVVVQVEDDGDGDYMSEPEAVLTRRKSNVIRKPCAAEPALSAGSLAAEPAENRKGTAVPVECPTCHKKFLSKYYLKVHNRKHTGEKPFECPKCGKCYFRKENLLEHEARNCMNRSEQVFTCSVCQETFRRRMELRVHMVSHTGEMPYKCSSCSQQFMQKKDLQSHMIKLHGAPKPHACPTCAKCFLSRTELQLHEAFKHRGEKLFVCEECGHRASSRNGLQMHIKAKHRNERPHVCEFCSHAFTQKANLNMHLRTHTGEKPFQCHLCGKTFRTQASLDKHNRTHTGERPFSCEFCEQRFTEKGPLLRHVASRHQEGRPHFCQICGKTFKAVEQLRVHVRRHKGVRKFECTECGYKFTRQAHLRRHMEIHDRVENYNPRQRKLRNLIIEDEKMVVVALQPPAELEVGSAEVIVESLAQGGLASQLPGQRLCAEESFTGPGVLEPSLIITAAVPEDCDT
# UniProt P10398: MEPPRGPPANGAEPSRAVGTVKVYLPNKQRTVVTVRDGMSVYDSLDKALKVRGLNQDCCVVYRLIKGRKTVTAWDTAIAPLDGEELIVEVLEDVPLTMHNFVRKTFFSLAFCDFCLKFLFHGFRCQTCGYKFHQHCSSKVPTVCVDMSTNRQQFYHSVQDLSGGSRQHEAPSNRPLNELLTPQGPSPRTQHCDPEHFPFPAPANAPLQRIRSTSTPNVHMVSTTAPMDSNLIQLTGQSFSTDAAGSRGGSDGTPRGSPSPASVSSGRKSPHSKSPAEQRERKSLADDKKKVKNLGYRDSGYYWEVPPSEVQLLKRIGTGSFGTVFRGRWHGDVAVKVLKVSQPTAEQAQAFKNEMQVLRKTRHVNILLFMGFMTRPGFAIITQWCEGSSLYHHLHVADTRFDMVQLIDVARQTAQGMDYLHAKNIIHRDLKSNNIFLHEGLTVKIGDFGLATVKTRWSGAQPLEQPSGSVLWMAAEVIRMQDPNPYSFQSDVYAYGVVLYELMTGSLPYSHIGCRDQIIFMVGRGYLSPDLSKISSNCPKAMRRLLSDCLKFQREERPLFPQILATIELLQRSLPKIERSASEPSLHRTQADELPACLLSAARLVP
# UniProt P14174: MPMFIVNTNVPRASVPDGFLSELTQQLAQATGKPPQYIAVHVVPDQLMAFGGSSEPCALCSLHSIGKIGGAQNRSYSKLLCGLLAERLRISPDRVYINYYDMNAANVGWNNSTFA
# UniProt O95926: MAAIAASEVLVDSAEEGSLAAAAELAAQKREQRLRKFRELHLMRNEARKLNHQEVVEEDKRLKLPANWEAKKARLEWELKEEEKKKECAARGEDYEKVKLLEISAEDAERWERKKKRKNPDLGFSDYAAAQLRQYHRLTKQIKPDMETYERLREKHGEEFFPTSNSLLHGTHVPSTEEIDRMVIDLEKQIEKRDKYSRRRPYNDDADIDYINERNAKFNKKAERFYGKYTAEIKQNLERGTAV
# UniProt P04150: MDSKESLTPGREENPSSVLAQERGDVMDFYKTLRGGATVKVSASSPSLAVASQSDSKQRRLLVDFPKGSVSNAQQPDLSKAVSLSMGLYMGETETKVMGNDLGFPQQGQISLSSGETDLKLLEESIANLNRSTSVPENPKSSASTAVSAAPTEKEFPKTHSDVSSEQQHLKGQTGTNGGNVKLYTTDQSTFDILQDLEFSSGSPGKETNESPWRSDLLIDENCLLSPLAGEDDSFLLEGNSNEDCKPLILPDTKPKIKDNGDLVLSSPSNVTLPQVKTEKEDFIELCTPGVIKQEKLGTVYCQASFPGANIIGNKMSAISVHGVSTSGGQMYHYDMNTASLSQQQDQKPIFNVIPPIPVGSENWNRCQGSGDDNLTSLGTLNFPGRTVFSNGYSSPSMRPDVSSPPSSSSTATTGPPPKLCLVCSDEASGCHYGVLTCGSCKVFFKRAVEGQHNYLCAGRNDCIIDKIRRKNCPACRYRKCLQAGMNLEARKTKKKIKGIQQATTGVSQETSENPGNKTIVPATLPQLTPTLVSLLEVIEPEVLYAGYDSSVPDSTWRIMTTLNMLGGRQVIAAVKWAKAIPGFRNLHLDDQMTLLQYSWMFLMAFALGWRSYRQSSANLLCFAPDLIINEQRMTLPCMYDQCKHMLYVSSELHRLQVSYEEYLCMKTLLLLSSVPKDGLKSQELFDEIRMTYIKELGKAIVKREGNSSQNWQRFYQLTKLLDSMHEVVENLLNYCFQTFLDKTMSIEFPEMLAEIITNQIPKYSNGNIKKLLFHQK
# UniProt P09110: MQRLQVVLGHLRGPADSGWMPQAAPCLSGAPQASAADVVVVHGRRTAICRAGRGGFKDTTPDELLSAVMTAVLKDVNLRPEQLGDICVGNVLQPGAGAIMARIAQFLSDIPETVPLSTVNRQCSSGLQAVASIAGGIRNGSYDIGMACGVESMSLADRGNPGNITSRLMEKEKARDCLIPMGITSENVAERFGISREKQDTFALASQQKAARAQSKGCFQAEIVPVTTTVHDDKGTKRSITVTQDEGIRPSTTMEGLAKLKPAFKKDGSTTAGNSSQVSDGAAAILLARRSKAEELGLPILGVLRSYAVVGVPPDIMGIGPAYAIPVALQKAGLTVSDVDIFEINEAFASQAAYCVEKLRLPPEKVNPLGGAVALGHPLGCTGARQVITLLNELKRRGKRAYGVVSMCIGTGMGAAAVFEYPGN
# UniProt P13716: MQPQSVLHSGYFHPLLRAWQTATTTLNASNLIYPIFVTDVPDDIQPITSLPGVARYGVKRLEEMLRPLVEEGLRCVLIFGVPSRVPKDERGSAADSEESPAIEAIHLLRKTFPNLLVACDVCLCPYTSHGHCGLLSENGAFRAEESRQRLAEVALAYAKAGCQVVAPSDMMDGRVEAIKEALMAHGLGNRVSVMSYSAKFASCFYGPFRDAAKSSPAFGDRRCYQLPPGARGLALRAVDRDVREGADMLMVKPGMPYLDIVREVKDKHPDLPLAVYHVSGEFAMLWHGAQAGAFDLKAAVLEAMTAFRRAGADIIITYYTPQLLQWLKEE
# UniProt O96019, whole entry: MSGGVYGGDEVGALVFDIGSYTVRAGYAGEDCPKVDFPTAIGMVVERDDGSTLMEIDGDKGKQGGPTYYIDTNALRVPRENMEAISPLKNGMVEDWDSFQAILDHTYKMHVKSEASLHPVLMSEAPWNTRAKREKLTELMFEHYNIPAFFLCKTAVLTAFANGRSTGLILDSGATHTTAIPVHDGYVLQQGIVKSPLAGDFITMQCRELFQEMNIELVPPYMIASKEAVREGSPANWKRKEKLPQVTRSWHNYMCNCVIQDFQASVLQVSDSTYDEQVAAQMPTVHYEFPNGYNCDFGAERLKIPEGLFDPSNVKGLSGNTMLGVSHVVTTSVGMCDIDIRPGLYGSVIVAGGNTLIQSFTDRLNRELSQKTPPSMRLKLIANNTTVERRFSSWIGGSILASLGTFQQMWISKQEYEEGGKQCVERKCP
# ± gives the standard deviation of the averaged measurements. The entries are a selection whose mix differs from that of the whole data set.
# Compound: Nc1ncnc2c1ncn2[C@@H]1O[C@H](COP(=O)(O)OP(=O)(O)OP(=O)(O)O)[C@@H](O)[C@H]1O [adenosine triphosphate]
# Test: NP40-soluble protein abundance relative to vehicle (solubility fold change) (ratio); higher = more soluble protein in presence of ATP
# How it was run: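 Each value is a fold change relative to the detergent-processed vehicle, calculated per replicate from vsn-normalised intensities. Jurkat crude lysate received eight concentrations (0.1 to 10 mM) for 10 min at room temperature and 3 min at 37 °C, then was solubilised in 0.8% NP40 with benzonase (60 min, 4 °C). The ultracentrifuged supernatant was TMT-labelled and run by LC-MS/MS in three independent experiments.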
Target,NP40-soluble protein abundance (concentration: 1mM),NP40-soluble protein abundance (concentration: 2mM),NP40-soluble protein abundance (concentration: 4mM),NP40-soluble protein abundance (concentration: 6mM),NP40-soluble protein abundance (concentration: 8mM),NP40-soluble protein abundance (concentration: 10mM)
IGLL1 (UniProt P15814),0.986 ± 0.087,0.98 ± 0.086,0.978 ± 0.042,0.965 ± 0.064,0.921 ± 0.033,0.95 ± 0.042
UniProt P15813,0.866 ± 0.011,0.916 ± 0.023,0.917 ± 0.054,0.851 ± 0.083,0.823 ± 0.018,0.911 ± 0.035
VAV1 (UniProt P15498),1.02 ± 0.13,1 ± 0.12,0.975 ± 0.094,0.912 ± 0.14,1.02 ± 0.06,0.971 ± 0.061
HIST1H1E (UniProt P10412),1.14 ± 0.19,1.08 ± 0.068,1.18 ± 0.1,1.33 ± 0.11,1.26 ± 0.095,1.61 ± 0.22
TGFB1 (UniProt P01137),0.957 ± 0.013,0.94 ± 0.021,0.936 ± 0.023,0.922 ± 0.013,0.9079 ± 0.0057,0.931 ± 0.042
RAF1 (UniProt P04049),1.39 ± 0.046,1.41 ± 0.054,1.46 ± 0.058,1.41 ± 0.04,1.41 ± 0.096,1.48 ± 0.03
TPR (UniProt P12270),0.966 ± 0.057,0.967 ± 0.015,0.95 ± 0.023,1.02 ± 0.037,0.957 ± 0.024,0.97 ± 0.017
UniProt P00338-3|P00338-2,1.05 ± 0.3,0.89 ± 0.14,1.03 ± 0.15,0.742 ± 0.11,0.972 ± 0.067,0.842 ± 0.15
UniProt P11498 and related entries,1.04 ± 0.058,1.01 ± 0.037,0.999 ± 0.021,0.985 ± 0.051,1.02 ± 0.025,0.992 ± 0.012
C6orf47 (UniProt O95873),0.909 ± 0.026,0.876 ± 0.088,0.912 ± 0.029,0.918 ± 0.066,0.891 ± 0.021,0.92 ± 0.078
OAT (UniProt P04181),0.978 ± 0.029,0.955 ± 0.02,0.918 ± 0.043,0.876 ± 0.027,0.896 ± 0.046,0.92 ± 0.029
RPN1 (UniProt P04843),1.01 ± 0.04,0.97 ± 0.021,0.9282 ± 0.005,0.97 ± 0.039,0.967 ± 0.022,0.943 ± 0.038
UniProt P12544 and related entries,1.07 ± 0.25,1.08 ± 0.064,1.21 ± 0.21,1.15 ± 0.12,1.29 ± 0.19,1.24 ± 0.061
SLC25A6 (UniProt P12236),0.932 ± 0.08,0.956 ± 0.055,0.925 ± 0.017,0.885 ± 0.091,0.93 ± 0.067,1.03 ± 0.092
DARS (UniProt P14868),1.05 ± 0.083,0.978 ± 0.039,0.968 ± 0.027,0.917 ± 0.057,1.01 ± 0.056,0.973 ± 0.068
ACYP2 (UniProt P14621),0.904 ± 0.03,0.934 ± 0.075,0.895 ± 0.05,0.885 ± 0.039,0.858 ± 0.036,0.896 ± 0.049
ESD (UniProt P10768),0.982 ± 0.03,0.937 ± 0.041,0.897 ± 0.039,0.958 ± 0.065,0.915 ± 0.043,0.917 ± 0.051
UniProt P09693,0.908 ± 0.038,0.926 ± 0.034,0.893 ± 0.043,0.96 ± 0.071,0.879 ± 0.045,0.832 ± 0.079
MT2A (UniProt P02795),0.826 ± 0.056,0.873 ± 0.036,1 ± 0.06,0.93 ± 0.024,0.961 ± 0.18,0.903 ± 0.02
VIM (UniProt P08670),0.977 ± 0.027,0.97 ± 0.014,0.952 ± 0.037,0.999 ± 0.07,0.957 ± 0.033,0.952 ± 0.026

Target,NP40-soluble protein abundance (concentration: 1mM),NP40-soluble protein abundance (concentration: 2mM),NP40-soluble protein abundance (concentration: 4mM),NP40-soluble protein abundance (concentration: 6mM),NP40-soluble protein abundance (concentration: 8mM),NP40-soluble protein abundance (concentration: 10mM)
SRF (UniProt P11831),0.97 ± 0.057,1.01 ± 0.068,0.966 ± 0.056,1 ± 0.055,0.962 ± 0.073,0.951 ± 0.025
P0C0S8 and related entries (UniProt Q99878+Q96KK5+Q93077+Q6FI13+P0C0S8),0.824 ± 0.2,0.683 ± 0.18,0.723 ± 0.14,0.686 ± 0.11,0.464 ± 0.067,1.03 ± 0.41
UniProt O95834-2|O95834-3|O95834,1.02 ± 0.099,0.992 ± 0.088,0.982 ± 0.083,0.963 ± 0.11,1.03 ± 0.092,0.994 ± 0.067
GNAI2 (UniProt P04899),1.11 ± 0.087,1.07 ± 0.1,1.06 ± 0.12,1.03 ± 0.12,1.1 ± 0.11,1.03 ± 0.083
RPLP2 (UniProt P05387),0.952 ± 0.11,0.902 ± 0.15,0.939 ± 0.069,1 ± 0.2,0.828 ± 0.042,0.95 ± 0.057
CLPTM1 (UniProt O96005),0.963 ± 0.047,0.976 ± 0.056,0.999 ± 0.052,0.944 ± 0.09,0.944 ± 0.03,0.973 ± 0.049
ITGA4 (UniProt P13612),0.935 ± 0.021,0.952 ± 0.016,0.925 ± 0.025,0.935 ± 0.025,0.902 ± 0.027,0.91 ± 0.0094
ZBTB48 (UniProt P10074),1.02 ± 0.068,0.983 ± 0.076,0.931 ± 0.047,0.987 ± 0.012,0.902 ± 0.082,0.972 ± 0.12
GNAI3 (UniProt P08754),0.982 ± 0.067,0.991 ± 0.038,0.951 ± 0.024,0.865 ± 0.12,0.955 ± 0.048,1.01 ± 0.055
ZBED1 (UniProt O96006),0.99 ± 0.061,0.992 ± 0.042,0.957 ± 0.027,0.971 ± 0.024,0.9691 ± 0.0026,0.987 ± 0.038
PRKAR1A (UniProt P10644),0.995 ± 0.04,0.975 ± 0.048,0.992 ± 0.013,0.96 ± 0.056,0.991 ± 0.039,0.961 ± 0.079
SOD1 (UniProt P00441),0.83 ± 0.15,0.939 ± 0.086,0.796 ± 0.14,1.07 ± 0.12,0.88 ± 0.045,0.906 ± 0.12
EEF2 (UniProt P13639),0.949 ± 0.034,0.92 ± 0.047,0.889 ± 0.021,0.894 ± 0.069,0.925 ± 0.041,0.921 ± 0.062
UniProt O95985 and related entries,0.984 ± 0.067,0.96 ± 0.077,1.01 ± 0.087,1.06 ± 0.12,1.15 ± 0.13,1.15 ± 0.17
TK1 (UniProt P04183),1.03 ± 0.065,1.017 ± 0.0086,1.03 ± 0.021,1.03 ± 0.016,1 ± 0.035,1.02 ± 0.03
UniProt P10398 and related entries,1.33 ± 0.088,1.36 ± 0.099,1.38 ± 0.11,1.38 ± 0.085,1.37 ± 0.12,1.41 ± 0.12
UniProt P09543-2,1.12 ± 0.036,1.13 ± 0.039,1.1 ± 0.023,1.09 ± 0.076,1.13 ± 0.044,1.11 ± 0.047
UniProt O96017 and related entries,1.03 ± 0.12,1.03 ± 0.095,1.01 ± 0.083,0.988 ± 0.13,0.997 ± 0.099,0.998 ± 0.074
LDHB (UniProt P07195),0.855 ± 0.22,1.03 ± 0.12,0.815 ± 0.16,1 ± 0.1,1.01 ± 0.14,0.835 ± 0.19
UniProt P15529-2|P15529-3|P15529-4|P15529-5|P15529-6|P15529-7|P15529-16,0.929 ± 0.056,0.929 ± 0.059,0.938 ± 0.04,0.964 ± 0.03,0.9178 ± 0.0073,0.902 ± 0.033

# Part of the list above in another layout:
Target	NP40-soluble protein abundance (concentration: 1mM)	NP40-soluble protein abundance (concentration: 2mM)	NP40-soluble protein abundance (concentration: 4mM)	NP40-soluble protein abundance (concentration: 6mM)	NP40-soluble protein abundance (concentration: 8mM)	NP40-soluble protein abundance (concentration: 10mM)
UniProt P10398 and related entries	1.33 ± 0.088	1.36 ± 0.099	1.38 ± 0.11	1.38 ± 0.085	1.37 ± 0.12	1.41 ± 0.12
UniProt P09543-2	1.12 ± 0.036	1.13 ± 0.039	1.1 ± 0.023	1.09 ± 0.076	1.13 ± 0.044	1.11 ± 0.047
UniProt O96017 and related entries	1.03 ± 0.12	1.03 ± 0.095	1.01 ± 0.083	0.988 ± 0.13	0.997 ± 0.099	0.998 ± 0.074
LDHB (UniProt P07195)	0.855 ± 0.22	1.03 ± 0.12	0.815 ± 0.16	1 ± 0.1	1.01 ± 0.14	0.835 ± 0.19
UniProt P15529-2|P15529-3|P15529-4|P15529-5|P15529-6|P15529-7|P15529-16	0.929 ± 0.056	0.929 ± 0.059	0.938 ± 0.04	0.964 ± 0.03	0.9178 ± 0.0073	0.902 ± 0.033

# Following part.

Target,NP40-soluble protein abundance (concentration: 1mM),NP40-soluble protein abundance (concentration: 2mM),NP40-soluble protein abundance (concentration: 4mM),NP40-soluble protein abundance (concentration: 6mM),NP40-soluble protein abundance (concentration: 8mM),NP40-soluble protein abundance (concentration: 10mM)
RALA (UniProt P11233),1.01 ± 0.04,0.981 ± 0.041,0.962 ± 0.054,1.02 ± 0.041,0.956 ± 0.022,0.956 ± 0.053
UniProt P10244 and related entries,1.05 ± 0.12,1.12 ± 0.12,1.06 ± 0.083,1.25 ± 0.059,1.1 ± 0.051,1.17 ± 0.07
UMPS (UniProt P11172),1.03 ± 0.08,0.999 ± 0.081,0.971 ± 0.069,0.958 ± 0.11,1 ± 0.068,0.972 ± 0.065
UniProt P12814 and related entries,0.976 ± 0.013,0.973 ± 0.011,0.9535 ± 0.0057,0.977 ± 0.031,0.9628 ± 0.0044,0.96 ± 0.048
UniProt P06127,0.967 ± 0.083,1 ± 0.06,1.01 ± 0.039,1.03 ± 0.045,0.974 ± 0.025,0.937 ± 0.052
TSPAN13 (UniProt O95857),0.878 ± 0.11,0.886 ± 0.075,0.932 ± 0.085,0.91 ± 0.059,0.868 ± 0.057,0.911 ± 0.01
UniProt P06748 and related entries,0.998 ± 0.066,1.02 ± 0.039,0.999 ± 0.069,1.15 ± 0.06,1.084 ± 0.0087,1.12 ± 0.055
UniProt P05026 and related entries,1.08 ± 0.17,0.985 ± 0.044,0.9948 ± 0.005,0.98 ± 0.033,0.933 ± 0.042,0.948 ± 0.07
MIF (UniProt P14174),0.962 ± 0.013,0.97 ± 0.015,0.967 ± 0.015,0.901 ± 0.035,0.938 ± 0.036,0.909 ± 0.046
UniProt P10586 and related entries,0.975 ± 0.02,1.02 ± 0.041,1.01 ± 0.066,1.01 ± 0.029,0.948 ± 0.041,0.988 ± 0.039
UniProt P11171-2|P11171 and related entries,0.99 ± 0.01,0.98 ± 0.024,0.973 ± 0.023,0.992 ± 0.044,0.971 ± 0.033,0.967 ± 0.035
PRKAR2A (UniProt P13861),0.998 ± 0.011,0.966 ± 0.015,0.953 ± 0.017,0.966 ± 0.018,0.966 ± 0.019,0.951 ± 0.019
SYF2 (UniProt O95926),0.699 ± 0.055,0.671 ± 0.08,0.704 ± 0.043,0.741 ± 0.16,0.8 ± 0.035,0.801 ± 0.079
PAK4 (UniProt O96013),1.02 ± 0.019,0.999 ± 0.032,1.021 ± 0.0019,0.974 ± 0.018,1 ± 0.028,0.985 ± 0.011
UniProt P04150 and related entries,1 ± 0.061,0.926 ± 0.12,0.881 ± 0.13,0.89 ± 0.13,0.872 ± 0.21,0.805 ± 0.16
ACAA1 (UniProt P09110),0.972 ± 0.041,1.01 ± 0.025,0.978 ± 0.011,0.983 ± 0.01,0.941 ± 0.011,0.97 ± 0.037
UniProt P04424 and related entries,1 ± 0.028,0.994 ± 0.04,0.971 ± 0.02,0.963 ± 0.025,0.948 ± 0.036,0.948 ± 0.046
ALAD (UniProt P13716),0.993 ± 0.041,1.01 ± 0.024,0.982 ± 0.043,0.994 ± 0.078,0.963 ± 0.027,0.978 ± 0.039
ACTL6A (UniProt O96019),1.07 ± 0.044,1.05 ± 0.041,1.04 ± 0.047,1.06 ± 0.047,1.07 ± 0.034,1.07 ± 0.042
UniProt P13807 and related entries,1.06 ± 0.088,0.933 ± 0.069,0.924 ± 0.099,0.841 ± 0.073,0.844 ± 0.14,0.91 ± 0.04
